# Cleaved PARP in drug-treated melanoma cells

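Human melanoma cells were exposed to two drugs together for 72 h in 1,536-well plates and read by automated microscopy after fixing and staining. The read-out is the fraction of cleaved-PARP-positive nuclei, in % of that fraction in the DMSO control; 200 means twice the control level of this apoptosis marker. Concentrations were fixed for each drug; these are the higher of two levels. These are primary screening values without error estimates. The marker varies much from line to line, for technical or biological reasons.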
An unselected part of the screen is shown.

Compounds and concentrations:
tamatinib: COc1cc(Nc2ncc(F)c(Nc3ccc4c(n3)NC(=O)C(C)(C)O4)n2)cc(OC)c1OC at 2 µM
CX-4945: O=C(O)c1ccc2c(c1)nc(Nc1cccc(Cl)c1)c1ccncc12 at 2 µM
TCS401: O=C(O)C(=O)Nc1sc2c(c1C(=O)O)CCNC2 at 8.33 µM
dovitinib: CN1CCN(c2ccc3nc(-c4c(N)c5c(F)cccc5[nH]c4=O)[nH]c3c2)CC1 at 0.5 µM
temozolomide: Cn1nnc2c(C(N)=O)ncn2c1=O at 10 µM
fludarabine: Nc1nc(F)nc2c1ncn2[C@@H]1O[C@H](CO)[C@@H](O)[C@@H]1O at 1 µM
fingolimod: CCCCCCCCc1ccc(CCC(N)(CO)CO)cc1 at 10 µM
T0901317: O=S(=O)(c1ccccc1)N(CC(F)(F)F)c1ccc(C(O)(C(F)(F)F)C(F)(F)F)cc1 at 7 µM
vorinostat: O=C(CCCCCCC(=O)Nc1ccccc1)NO at 0.4 µM
PF-562271: CN(c1ncccc1CNc1nc(Nc2ccc3c(c2)CC(=O)N3)ncc1C(F)(F)F)S(C)(=O)=O at 0.4 µM
enzastaurin: Cn1cc(C2=C(c3cn(C4CCN(Cc5ccccn5)CC4)c4ccccc34)C(=O)NC2=O)c2ccccc21 at 4 µM
lestaurtinib: C[C@]12O[C@H](C[C@]1(O)CO)n1c3ccccc3c3c4c(c5c6ccccc6n2c5c31)CNC4=O at 0.02 µM

| # | Drugs | LB2518-MEL |
|---|---|---|
| 1 | temozolomide + vorinostat | 116 |
| 2 | vorinostat + PF-562271 | 81.9 |
| 3 | T0901317 + enzastaurin | 221 |
| 4 | enzastaurin + PF-562271 | 189 |
| 5 | lestaurtinib + dovitinib | 452 |
| 6 | temozolomide + T0901317 | 70.7 |
| 7 | tamatinib + dovitinib | 79.4 |
| 8 | tamatinib + vorinostat | 367 |
| 9 | tamatinib + PF-562271 | 93.4 |
| 10 | tamatinib + fingolimod | 2870 |
| 11 | lestaurtinib + T0901317 | 58.4 |
| 12 | vorinostat + TCS401 | 76.8 |
| 13 | PF-562271 + lestaurtinib | 198 |
| 14 | dovitinib + PF-562271 | 109 |
| 15 | T0901317 + fingolimod | 55600 |
| 16 | dovitinib + fludarabine | 96.9 |
| 17 | tamatinib + TCS401 | 153 |
| 18 | CX-4945 + vorinostat | 206 |
| 19 | dovitinib + enzastaurin | 246 |
| 20 | T0901317 + PF-562271 | 316 |
| 21 | temozolomide + PF-562271 | 81.5 |
| 22 | CX-4945 + enzastaurin | 101 |
| 23 | enzastaurin + lestaurtinib | 394 |
| 24 | dovitinib + TCS401 | 77.0 |
| 25 | fingolimod + dovitinib | 26700 |
| 26 | fludarabine + lestaurtinib | 191 |
| 27 | dovitinib + CX-4945 | 286 |
| 28 | fingolimod + CX-4945 | 68600 |
| 29 | vorinostat + T0901317 | 77.6 |

Some entries from above, unchanged:

| Drugs | LB2518-MEL |
|---|---|
| T0901317 + PF-562271 | 316 |
| dovitinib + TCS401 | 77.0 |
| tamatinib + fingolimod | 2870 |

Data from the primary screen of doi:10.1371/journal.pone.0140310, rounded.